Test results: patent US20110190218A1
No constants are given. Whether binding was seen depends on the method and setting. In cells and extracts the contact can be indirect. Some binding calls cover weakened binding; strength is not graded here.

By UniProt entry, the sequences of proteins in these tests, tags left out. Residues count along the entry.
UniProt P11021, residues 19-654: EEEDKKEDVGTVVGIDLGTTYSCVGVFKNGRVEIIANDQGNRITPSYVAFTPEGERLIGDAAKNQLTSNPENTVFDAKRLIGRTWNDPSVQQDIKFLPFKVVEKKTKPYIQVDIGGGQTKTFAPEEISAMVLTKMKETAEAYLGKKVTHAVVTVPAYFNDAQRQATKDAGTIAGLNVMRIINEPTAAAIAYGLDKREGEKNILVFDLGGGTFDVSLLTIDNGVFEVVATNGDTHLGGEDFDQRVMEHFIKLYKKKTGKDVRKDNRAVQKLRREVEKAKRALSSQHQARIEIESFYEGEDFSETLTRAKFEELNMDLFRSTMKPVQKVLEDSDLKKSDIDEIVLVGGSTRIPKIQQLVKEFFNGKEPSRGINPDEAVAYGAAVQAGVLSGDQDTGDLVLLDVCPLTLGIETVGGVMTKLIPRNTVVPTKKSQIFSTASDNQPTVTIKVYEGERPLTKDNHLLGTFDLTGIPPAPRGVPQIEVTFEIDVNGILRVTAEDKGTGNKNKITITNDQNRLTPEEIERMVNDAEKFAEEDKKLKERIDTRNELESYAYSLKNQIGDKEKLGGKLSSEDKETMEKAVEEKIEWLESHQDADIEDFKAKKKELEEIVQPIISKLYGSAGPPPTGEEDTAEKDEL
UniProt P38646, residues 47-679: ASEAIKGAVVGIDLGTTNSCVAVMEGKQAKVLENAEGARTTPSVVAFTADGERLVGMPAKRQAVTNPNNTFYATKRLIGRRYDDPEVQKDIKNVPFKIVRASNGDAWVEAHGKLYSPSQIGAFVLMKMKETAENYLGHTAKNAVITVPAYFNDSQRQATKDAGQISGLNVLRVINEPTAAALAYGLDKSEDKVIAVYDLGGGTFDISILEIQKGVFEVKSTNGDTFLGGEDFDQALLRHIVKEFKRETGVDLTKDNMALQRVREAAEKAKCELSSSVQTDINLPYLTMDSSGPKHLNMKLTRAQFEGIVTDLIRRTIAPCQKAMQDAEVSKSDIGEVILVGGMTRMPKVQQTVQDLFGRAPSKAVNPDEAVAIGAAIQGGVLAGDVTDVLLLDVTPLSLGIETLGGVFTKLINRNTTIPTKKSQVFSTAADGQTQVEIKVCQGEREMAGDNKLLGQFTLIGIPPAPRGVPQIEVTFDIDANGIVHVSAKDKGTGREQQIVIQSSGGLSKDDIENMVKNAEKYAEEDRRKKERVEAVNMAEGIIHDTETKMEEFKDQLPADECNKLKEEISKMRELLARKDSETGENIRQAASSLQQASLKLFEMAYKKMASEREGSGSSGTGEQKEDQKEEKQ
UniProt P0DMV8, residues 2-641: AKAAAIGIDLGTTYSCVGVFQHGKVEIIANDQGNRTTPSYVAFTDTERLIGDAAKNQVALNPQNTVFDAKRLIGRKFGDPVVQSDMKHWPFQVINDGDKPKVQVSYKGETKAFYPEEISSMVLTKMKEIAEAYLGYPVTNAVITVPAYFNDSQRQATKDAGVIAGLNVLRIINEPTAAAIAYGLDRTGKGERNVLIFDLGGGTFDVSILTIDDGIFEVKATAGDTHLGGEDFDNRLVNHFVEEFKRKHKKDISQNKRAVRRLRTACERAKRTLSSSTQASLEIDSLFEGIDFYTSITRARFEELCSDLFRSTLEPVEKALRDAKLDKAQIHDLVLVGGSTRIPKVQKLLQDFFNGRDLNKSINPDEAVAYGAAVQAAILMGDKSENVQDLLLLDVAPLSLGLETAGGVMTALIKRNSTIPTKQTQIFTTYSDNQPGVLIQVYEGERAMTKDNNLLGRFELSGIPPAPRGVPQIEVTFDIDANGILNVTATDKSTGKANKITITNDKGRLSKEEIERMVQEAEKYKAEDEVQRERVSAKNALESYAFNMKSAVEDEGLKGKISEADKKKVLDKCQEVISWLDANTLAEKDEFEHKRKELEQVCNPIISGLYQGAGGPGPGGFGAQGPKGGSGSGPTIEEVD
UniProt P10275: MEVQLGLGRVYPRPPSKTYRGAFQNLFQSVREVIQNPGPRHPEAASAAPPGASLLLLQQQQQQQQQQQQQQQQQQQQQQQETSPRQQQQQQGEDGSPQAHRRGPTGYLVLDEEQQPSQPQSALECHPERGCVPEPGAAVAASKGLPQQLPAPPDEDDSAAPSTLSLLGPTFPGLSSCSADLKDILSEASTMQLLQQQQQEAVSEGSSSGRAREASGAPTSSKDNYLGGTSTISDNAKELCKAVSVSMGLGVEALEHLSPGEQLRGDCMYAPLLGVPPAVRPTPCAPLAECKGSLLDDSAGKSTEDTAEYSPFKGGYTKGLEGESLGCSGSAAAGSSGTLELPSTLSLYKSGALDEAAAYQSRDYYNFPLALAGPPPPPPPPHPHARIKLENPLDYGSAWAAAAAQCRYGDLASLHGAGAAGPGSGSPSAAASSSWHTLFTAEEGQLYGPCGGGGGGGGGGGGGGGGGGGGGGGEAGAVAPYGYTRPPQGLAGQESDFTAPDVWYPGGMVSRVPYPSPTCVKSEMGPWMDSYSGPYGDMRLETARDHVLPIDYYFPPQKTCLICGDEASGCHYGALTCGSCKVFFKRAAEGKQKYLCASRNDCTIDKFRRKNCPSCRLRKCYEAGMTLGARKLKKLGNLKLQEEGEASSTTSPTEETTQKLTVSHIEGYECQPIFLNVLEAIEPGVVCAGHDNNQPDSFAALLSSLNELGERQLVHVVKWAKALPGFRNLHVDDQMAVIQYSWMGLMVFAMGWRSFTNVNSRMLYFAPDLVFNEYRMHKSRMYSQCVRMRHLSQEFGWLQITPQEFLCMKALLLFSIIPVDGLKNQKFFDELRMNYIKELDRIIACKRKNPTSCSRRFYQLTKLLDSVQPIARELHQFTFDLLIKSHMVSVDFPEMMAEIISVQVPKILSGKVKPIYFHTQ

Tests used:
GRP78 (human) [1] = target: GRP78 (human) (UniProt P11021); assay: GST pull-down from 22Rv.1 lysate, immunoblot with anti-GRP78 (FIG. 4C)
GRP75 (human) [2] = target: GRP75 (human) (UniProt P38646); assay: GST pull-down from 22Rv.1 lysate, immunoblot with anti-GRP75 (FIG. 4C)
Hsp70 (human) = Hsp70 (human) (UniProt P0DMV8); assay: GST pull-down from 22Rv.1 lysate, immunoblot
GRP75 (human) [3] = target: GRP75 (human) (UniProt P38646); assay: GST pull-down from 22Rv.1 and LNCaP lysates, silver stain, identified by nanoLC-ESI-MSMS as GRP75, GRP78, polyubiquitin, and histone H2ai
GRP78 (human) [4] = target: GRP78 (human) (UniProt P11021); assay: as above
[5] = target: androgen receptor (human) (UniProt P10275); assay: GST pull-down from 22Rv.1 lysate (vehicle or DHT), immunoblot

binding (GRP78 (human) [1]): binds
binding (GRP75 (human) [2]): binds
binding (Hsp70 (human)): binds
binding (GRP75 (human) [3]): binds
binding (GRP78 (human) [4]): binds
binding [5]: binds
Substance: GST-Bag-1L-(202-345) (from UniProt P08515 1-218; Q99933 202-345)
